PubChem BioAssay AID743121, NCATS | 2013
Screen: 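Genes whose silencing strengthens cell killing by camptothecin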 (primary screen). Cells: MDA-MB-231 cells, a human breast cancer line. Reagents: single siRNA against human genes, 20 nM siRNA (0.8 pmol per well). Time to read-out: 120 h (drug added 48 h after transfection, read 72 h later). Conditions: camptothecin 20 nM (about EC30) for 72 h; vehicle 0.1% DMSO in parallel plates. Measured: 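Cell viability by ATP luminescence (CellTiter-Glo) as % of non-targeting siRNA wells, and the log2 ratio of viability without drug over viability with camptothecin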. Reading the numbers: log2 vehicle/camptothecin viability: higher = stronger sensitisation to camptothecin; viability with camptothecin and viability without drug: higher = more viable cells. Active means: 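Active genes have an RSA gene-level p-value below 0.001, computed from the ratios of their separate siRNAs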.
In all, the deposit lists about 26,000 reagents; shown is a part drawn at random. 167 of them (0.63%) count as active. 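Calls are per gene from RSA p-values that are not deposited; an individual active-marked siRNA can sensitise only weakly.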 Reagents against one gene are numbered here.

The opening 7 records as a preview:
target | reagent no. | log2 vehicle/camptothecin viability | viability with camptothecin (% of control) | viability without drug (% of control) | activity call
SIK2 (GeneID 23235) | 1 | -0.345 | 98.9 | 77.9 | inactive
SIK2 (GeneID 23235) | 2 | -0.0362 | 74.8 | 72.9 | inactive
SIK2 (GeneID 23235) | 3 | -0.208 | 80 | 69.2 | inactive
SIK2 (GeneID 23235) | 4 | -0.0632 | 97.5 | 93.3 | inactive
XPA (GeneID 7507) | 1 | -0.148 | 94.9 | 85.6 | inactive
XPA (GeneID 7507) | 2 | -0.26 | 118 | 98.8 | inactive
XPA (GeneID 7507) | 3 | -0.432 | 63.5 | 47.1 | inactive

The listing, from the start:
target | reagent no. | log2 vehicle/camptothecin viability | viability with camptothecin (% of control) | viability without drug (% of control) | activity call
SIK2 (GeneID 23235) | 1 | -0.345 | 98.9 | 77.9 | inactive
SIK2 (GeneID 23235) | 2 | -0.0362 | 74.8 | 72.9 | inactive
SIK2 (GeneID 23235) | 3 | -0.208 | 80 | 69.2 | inactive
SIK2 (GeneID 23235) | 4 | -0.0632 | 97.5 | 93.3 | inactive
XPA (GeneID 7507) | 1 | -0.148 | 94.9 | 85.6 | inactive
XPA (GeneID 7507) | 2 | -0.26 | 118 | 98.8 | inactive
XPA (GeneID 7507) | 3 | -0.432 | 63.5 | 47.1 | inactive
XPA (GeneID 7507) | 4 | -0.337 | 75.9 | 60.1 | inactive
RAB26 (GeneID 25837) | 1 | -0.16 | 89.3 | 79.9 | inactive
RAB26 (GeneID 25837) | 2 | 0.67 | 2.93 | 4.66 | inactive
RAB26 (GeneID 25837) | 3 | -0.128 | 28.9 | 26.5 | inactive
RAB26 (GeneID 25837) | 4 | -0.139 | 96.8 | 87.9 | inactive
RAB44 (GeneID 401258) | 1 | -0.286 | 79.3 | 65 | inactive
FASLG (GeneID 356) | 1 | -0.098 | 92.3 | 86.2 | inactive
FASLG (GeneID 356) | 2 | -0.0651 | 60.6 | 57.9 | inactive
FASLG (GeneID 356) | 3 | 0.0984 | 90.7 | 97.1 | inactive
FASLG (GeneID 356) | 4 | -0.562 | 90.2 | 61.1 | inactive
TUBB2B (GeneID 347733) | 1 | -0.0662 | 101 | 96.7 | inactive
TUBB2B (GeneID 347733) | 2 | -0.429 | 129 | 95.4 | inactive
TUBB2B (GeneID 347733) | 3 | -0.338 | 133 | 105 | inactive
TUBB2B (GeneID 347733) | 4 | -0.187 | 92.1 | 80.9 | inactive
SLC25A15 (GeneID 10166) | 1 | -0.362 | 62.3 | 48.5 | inactive
SLC25A15 (GeneID 10166) | 2 | 0.0185 | 78.1 | 79.1 | inactive
SLC25A15 (GeneID 10166) | 3 | 0.354 | 76.1 | 97.2 | inactive
GATA2 (GeneID 2624) | 1 | -0.487 | 76.1 | 54.3 | inactive
GATA2 (GeneID 2624) | 2 | 0.0301 | 46 | 47 | inactive
GATA2 (GeneID 2624) | 3 | -0.154 | 82 | 73.7 | inactive
GATA2 (GeneID 2624) | 4 | -0.107 | 80.4 | 74.7 | inactive
SSPOP (GeneID 23145) | 1 | -0.417 | 122 | 91.5 | inactive
SNW1 (GeneID 22938) | 1 | 0.506 | 3.24 | 4.6 | inactive
SNW1 (GeneID 22938) | 2 | -0.577 | 38.6 | 25.8 | inactive
SNW1 (GeneID 22938) | 3 | -0.287 | 27.4 | 22.5 | inactive
SNW1 (GeneID 22938) | 4 | -0.471 | 20.6 | 14.9 | inactive
ZNF598 (GeneID 90850) | 1 | -0.0462 | 82.9 | 80.2 | inactive
ZNF598 (GeneID 90850) | 2 | -0.252 | 28.4 | 23.9 | inactive
ZNF598 (GeneID 90850) | 3 | 0.381 | 67.4 | 87.7 | inactive
ZNF598 (GeneID 90850) | 4 | -0.338 | 84.4 | 66.8 | inactive
FADD (GeneID 8772) | 1 | -0.131 | 100 | 91.4 | inactive
FADD (GeneID 8772) | 2 | -0.206 | 63.7 | 55.2 | inactive
FADD (GeneID 8772) | 3 | 0.012 | 90.8 | 91.6 | inactive
ULBP3 (GeneID 79465) | 1 | -0.0425 | 107 | 104 | inactive
ULBP3 (GeneID 79465) | 2 | -0.736 | 85.8 | 51.5 | inactive
ULBP3 (GeneID 79465) | 3 | 0.252 | 74.5 | 88.7 | inactive
ULBP3 (GeneID 79465) | 4 | 0.248 | 50.8 | 60.3 | inactive
CYP2C19 (GeneID 1557) | 1 | 0.21 | 77.8 | 90 | inactive
CYP2C19 (GeneID 1557) | 2 | -0.0178 | 93 | 91.9 | inactive
CYP2C19 (GeneID 1557) | 3 | -0.153 | 125 | 113 | inactive
GFRA4 (GeneID 64096) | 1 | -0.148 | 80.6 | 72.8 | inactive
GFRA4 (GeneID 64096) | 2 | 0.638 | 6.02 | 9.37 | inactive
GFRA4 (GeneID 64096) | 3 | -0.242 | 103 | 86.8 | inactive
NPTN (GeneID 27020) | 1 | 0.602 | 34.8 | 52.8 | inactive
NPTN (GeneID 27020) | 2 | -0.311 | 98.6 | 79.5 | inactive
NPTN (GeneID 27020) | 3 | 0.186 | 53.4 | 60.8 | inactive
ADGRE3 (GeneID 84658) | 1 | -0.243 | 88.5 | 74.8 | inactive
ADGRE3 (GeneID 84658) | 2 | -0.413 | 87.1 | 65.4 | inactive
ADGRE3 (GeneID 84658) | 3 | 0.396 | 80.3 | 106 | inactive
ADGRE3 (GeneID 84658) | 4 | 0.0719 | 50.1 | 52.7 | inactive
AATF (GeneID 26574) | 1 | -0.103 | 53.4 | 49.7 | inactive
AATF (GeneID 26574) | 2 | -0.367 | 61 | 47.3 | inactive
AATF (GeneID 26574) | 3 | -0.542 | 87.4 | 60 | inactive
AATF (GeneID 26574) | 4 | -0.301 | 82.6 | 67.1 | inactive
DBI (GeneID 1622) | 1 | -0.511 | 98.4 | 69 | inactive
DBI (GeneID 1622) | 2 | -0.445 | 130 | 95.3 | inactive
DBI (GeneID 1622) | 3 | -0.184 | 80.2 | 70.6 | inactive
DBI (GeneID 1622) | 4 | -0.218 | 84.4 | 72.5 | inactive
HAVCR2 (GeneID 84868) | 1 | -0.488 | 122 | 87.2 | inactive
HAVCR2 (GeneID 84868) | 2 | 0.103 | 88.4 | 94.9 | inactive
HAVCR2 (GeneID 84868) | 3 | -0.0744 | 73.2 | 69.6 | inactive
HAVCR2 (GeneID 84868) | 4 | 0.532 | 8.69 | 12.6 | inactive
